Reference: PubChem BioAssay AID720505 (Drosophila RNAi Screening Center, 2013)
Test: 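Genes needed for store-operated calcium entry in fly cells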 (primary screen). Cells: Drosophila S2R+ cells. Knock-down reagent: long dsRNA against Drosophila genes. Challenge: thapsigargin (2 µM) in calcium-free buffer to empty internal stores, then 2 mM calcium added back. Measured: 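Fluo-4 signal in 384-well plates read on a FLIPR after thapsigargin (2 µM, calcium-free) store depletion and 2 mM calcium add-back; unnormalised mean endpoint per well; screen run twice, selected wells retested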. Scale: calcium signal and retest calcium signal: higher = more calcium entry after store depletion. Hit rule: 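Knock-downs counted as hits when calcium entry dropped relative to STIM1 positive and Rho1 negative controls present on each plate; roughly 1500 genes called, with reductions of differing size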. Calls: active = called as lowering calcium entry; inactive = not called.
The deposit covers about 20,000 reagents; shown is an unselected part of those with a known target gene and a result. Of all reagents, about 2,100 (10%) got an active call. 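Raw plate signals without normalisation; calls rest on control-based scores that were not deposited; replicate 2 separates called from uncalled poorly.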 Unmarked entries are inactive. Reagents against one gene are numbered here. A plus sign joins genes that one reagent is predicted to hit. Not given: the amount of reagent, the time to read-out.

The opening 10 records, ahead of the listing:
Target gene | reagent | calcium signal, replicate 1 | calcium signal, replicate 2 | retest calcium signal, replicate 1 | retest calcium signal, replicate 2
Gos28 (GeneID 248102) | 1 | 189 | 166 | – | –
Gos28 (GeneID 248102) | 2 | 84.4 | 97.2 | – | –
CG30159 (GeneID 35611) | 1 | 183 | 106 | – | –
Ubr1 (GeneID 32687) | 1 | 129 | 140 | – | –
CG3502 (GeneID 37695) | 1 | 149 | 86.4 | – | –
sqh (GeneID 31554) | 1 | 133 | 102 | – | –
Ser8 (GeneID 36489) | 1 | 151 | 193 | – | –
tj (GeneID 35227) | 1 | 71.7 | 158 | – | –
Gr66a (GeneID 38935) | 1 | 91.7 | 80.8 | – | –
CG3014 (GeneID 40922) | 1 | 116 | 154 | – | –

The listing, from the first entry:
Target gene | reagent | calcium signal, replicate 1 | calcium signal, replicate 2 | retest calcium signal, replicate 1 | retest calcium signal, replicate 2
Gos28 (GeneID 248102) | 1 | 189 | 166 | – | –
Gos28 (GeneID 248102) | 2 | 84.4 | 97.2 | – | –
CG30159 (GeneID 35611) | 1 | 183 | 106 | – | –
Ubr1 (GeneID 32687) | 1 | 129 | 140 | – | –
CG3502 (GeneID 37695) | 1 | 149 | 86.4 | – | –
sqh (GeneID 31554) | 1 | 133 | 102 | – | –
Ser8 (GeneID 36489) | 1 | 151 | 193 | – | –
tj (GeneID 35227) | 1 | 71.7 | 158 | – | –
Gr66a (GeneID 38935) | 1 | 91.7 | 80.8 | – | –
CG3014 (GeneID 40922) | 1 | 116 | 154 | – | –
trem (GeneID 42392) | 1 | 78 | 74.5 | – | –
Lapsyn (GeneID 37418) | 1 | 155 | 83.5 | – | –
Hrb27C (GeneID 33968) | 1 | 78.4 | 159 | – | –
CG13887 (GeneID 38096) | 1 | 102 | 105 | – | –
Uev1A (GeneID 38613) | 1 | 88.1 | 76.9 | – | –
yata (GeneID 43508) | 1 | 200 | 167 | – | –
l(3)04053 (GeneID 46158) | 1 | 128 | 109 | 135 | 120
GstD5 (GeneID 48338) | 1 | 121 | 126 | – | –
CG15747 (GeneID 32288) | 1 | 131 | 113 | – | –
CG4884 (GeneID 43357) | 1 | 114 | 91.8 | – | –
Pgm1 (GeneID 44010) | 1 | 130 | 90.5 | – | –
CG11357 (GeneID 38561) | 1 | 111 | 73 | – | –
dlt (GeneID 46719) | 1 | 72.3 | 68.2 | – | –
Srp54 (GeneID 34312) | 1 | 84.7 | 78.4 | – | –
Csgalnact (GeneID 36079) | 1 | 145 | 106 | – | –
lectin-28C (GeneID 53542) | 1 | 84.4 | 102 | – | –
CG15877 (GeneID 38304) | 1 | 105 | 110 | – | –
CG1314 (GeneID 33066) | 1 | 181 | 182 | – | –
CG14042 + SP555 | 1 | 144 | 86.6 | – | –
CG14042 + SP555 | 2 | 142 | 99.1 | – | –
CG7966 (GeneID 41610) | 1 | 116 | 102 | – | –
CG2113 (GeneID 38356) | 1 | 88 | 82.7 | – | –
Alg7 (GeneID 34711) | 1 | 98.4 | 108 | – | –
Alg7 (GeneID 34711) | 2 | 103 | 83.1 | – | –
IntS6 (GeneID 31496) | 1 | 116 | 81.5 | – | –
CG11594 (GeneID 38473) | 1 | 185 | 108 | – | –
xit (GeneID 31623) | 1 | 178 | 113 | – | –
Mst27D (GeneID 319019) | 1 | 76.7 (active) | 81.2 | – | –
CG14630 (GeneID 44620) | 1 | 96.1 | 142 | – | –
CG14630 (GeneID 44620) | 2 | 74.5 | 136 | – | –
prc (GeneID 43930) | 1 | 117 | 111 | – | –
Cbl (GeneID 38961) | 1 | 97.5 | 92 | – | –
Cbl (GeneID 38961) | 2 | 73.1 | 74.2 | – | –
CG33136 (GeneID 318894) | 1 | 127 | 95.3 | – | –
natalisin (GeneID 5740700) | 1 | 121 | 68.8 | – | –
natalisin (GeneID 5740700) | 2 | 95.8 | 127 | – | –
CG13545 (GeneID 37675) | 1 | 138 | 250 | – | –
CG32547 (GeneID 3346150) | 1 | 62.8 | 76.3 | – | –
CG32547 (GeneID 3346150) | 2 | 64.2 | 69.8 | – | –
CG32547 (GeneID 3346150) | 3 | 86.7 | 119 | – | –
CG32547 (GeneID 3346150) | 4 | 98.6 | 116 | – | –
HisT (GeneID 35697) | 1 | 98.7 | 120 | – | –
HisT (GeneID 35697) | 2 | 86.8 | 90.4 | – | –
HisT (GeneID 35697) | 3 | 120 | 75.2 | – | –
Obp44a (GeneID 35789) | 1 | 151 | 188 | – | –
Idi (GeneID 42526) | 1 | 184 | 360 | – | –
CG8314 (GeneID 36757) | 1 | 120 | 89 | – | –
CG15725 (GeneID 32224) | 1 | 94.2 | 101 | – | –
CG33061 (GeneID 318838) | 1 | 128 (active) | 67.2 | – | –
CG33061 (GeneID 318838) | 2 | 102 | 160 | – | –
Nxt1 (GeneID 37769) | 1 | 120 | 137 | – | –
CG32984 (GeneID 34218) | 1 | 123 | 76.6 | – | –
CG10864 (GeneID 42222) | 1 | 200 | 191 | – | –
CG7606 (GeneID 8673956) | 1 | 116 | 114 | – | –
CG4073 (GeneID 41284) | 1 | 161 | 122 | – | –
CG6287 (GeneID 34554) | 1 | 108 | 85.5 | – | –
CG14408 (GeneID 32407) | 1 | 155 | 121 | – | –
Snx3 (GeneID 41551) | 1 | 173 | 77 | – | –
CCT5 (GeneID 36308) | 1 | 224 | 194 | – | –
CG12343 (GeneID 36143) | 1 | 109 | 116 | – | –
CG12320 (GeneID 42189) | 1 | 252 | 182 | – | –
CG10185 (GeneID 41953) | 1 | 140 | 136 | – | –
CG4962 (GeneID 39793) | 1 | 109 | 163 | – | –
Oatp26F (GeneID 33927) | 1 | 133 | 131 | – | –
Oatp26F (GeneID 33927) | 2 | 64.4 (active) | 136 | – | –
Oatp26F (GeneID 33927) | 3 | 130 | 120 | – | –
CG33640 (GeneID 3772680) | 1 | 261 | 93.3 | – | –
His2B:CG33870 + His2B:CG33868 + His2B:CG33882 + 21 more | 1 | 51.2 (active) | 114 | – | –
CG1090 (GeneID 40551) | 1 | 97.6 | 81.5 | – | –
CG1090 (GeneID 40551) | 2 | 164 | 86.5 | – | –
brun (GeneID 35325) | 1 | 98 | 98.5 | – | –
CG30384 (GeneID 246584) | 1 | 135 | 179 | – | –
CG31211 (GeneID 41443) | 1 | 113 | 139 | 143 | 133
CG31211 (GeneID 41443) | 2 | 161 | 83.5 | – | –
CG31211 (GeneID 41443) | 3 | 145 | 95.7 | – | –
